In all, about 33,000 sequences were measured (“E-score (-0.5 to 0.5)”: median about -8e-05, highest 2% from about 0.23 on). This is one part of the list.
What follows are sequences tested against T1, Nrg2 (UniProt P38082) (assay: PBM E-score (8-mer binding enrichment) (E-score (-0.5 to 0.5)); higher = stronger / more preferred TF binding). Settings: protein concentration: 100 nM; construct: GST-full length.
T1 sequence: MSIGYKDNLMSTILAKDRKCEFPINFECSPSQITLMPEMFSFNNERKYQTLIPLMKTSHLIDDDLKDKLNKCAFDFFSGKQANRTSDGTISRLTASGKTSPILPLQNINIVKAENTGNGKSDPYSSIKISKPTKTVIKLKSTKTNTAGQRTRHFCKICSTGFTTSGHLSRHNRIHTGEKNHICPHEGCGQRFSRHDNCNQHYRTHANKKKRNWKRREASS
In short: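 Full-length yeast transcription factors or their DNA-binding domains, GST-tagged and expressed with PURExpress, were applied at about 100-200 nM to universal all-10-mer Agilent arrays. These arrays had been made double-stranded by primer extension on fresh or once-stripped slides. Detection used fluorescent anti-GST, normalisation used masliner, and E-scores for ungapped eight-base words pooled with reverse complements came from the Universal PBM Analysis Suite.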

| Sequence | PBM E-score |
| --- | --- |
| TCAATCCA | 0.0713 |
| ATGGGTTG | 0.181 |
| CTAAGCAG | -0.148 |
| GCACCCAA | -0.0969 |
| GTCATGTA | -0.264 |
| GCGATCAA | 0.0144 |
| ATGAGATA | 0.178 |
| CCGGTCCG | -0.199 |
| TCCGAGGA | -0.0861 |
| CCCGTCTC | -0.166 |
| GGACTTAC | -0.0923 |
| TCCGATCA | 0.0427 |
| GTCAGTGA | 0.128 |
| CACTACGG | 0.151 |
| ACGACGGC | 0.0416 |
| ACATATAT | 0.0966 |
| ACTTTGCC | 0.15 |
| AGTGACGG | 0.0699 |
| GTATATAA | 0.178 |
| ATTGGACG | 0.00042 |
| AGAGAAAA | 0.12 |
| ATTTCGGC | 0.145 |
| CCCTTTGC | 0.131 |
| CAGCTGCC | -0.0817 |
| AGTGTTTA | 0.185 |

| Sequence | PBM E-score |
| --- | --- |
| AGCCAAGA | -0.128 |
| AACTTAGC | -0.0853 |
| ACAATCCA | 0.129 |
| AGATAAAG | 0.0224 |
| ACACGAGC | -0.065 |
| ATGACTCG | -0.164 |
| GGATTGCC | -0.0463 |
| ATTTAAAT | 0.213 |
| CAAGCATG | 0.00246 |
| AATCGGGC | -0.127 |
| CAATTCAA | 0.063 |
| ACCTTAAT | 0.0828 |
| CTAACGGC | -0.124 |
| CGACGGGC | 0.0686 |
| CATTCGCG | 0.212 |
| ATTTAAAG | 0.14 |
| AATAAGGA | 0.0295 |
| ACTTCACT | 0.0973 |
| AGTTGGCA | 0.1 |
| GTGATAGA | -0.099 |
| GCAATGAA | 0.183 |
| GCGGAAGC | -0.114 |
| CTGGGACC | -0.154 |
| CCGCGATC | 0.193 |
| ACTGTGAC | 0.153 |

| Sequence | PBM E-score |
| --- | --- |
| GGCAAGCA | -0.089 |
| AACCATAG | -0.0803 |
| CTGCTCAA | -0.0801 |
| CATTCCAC | 0.0538 |
| GGCTTAGA | -0.18 |
| AACTCCAG | -0.157 |
| CTTAGTTA | 0.0769 |
| ACAGTCGG | 0.0105 |
| ATCCAAGG | 0.0536 |
| GGATGACA | 0.184 |
| AGTCCTAA | -0.197 |
| TAACACGA | 0.121 |
| TGGACTAA | -0.00284 |
| AGCAAAAA | -0.00398 |
| ACACACGT | -0.123 |
| ACGTAATC | -0.00194 |
| CTTCCGTA | 0.021 |
| CAATGTCA | 0.0853 |
| ACTATCGG | 0.117 |
| TCACGGCA | 0.0508 |
| CCGAGGCG | -0.0306 |
| ACCCCTGA | 0.297 |
| AACCCCGG | 0.0231 |
| ATGGATTC | 0.12 |
| CCACATCA | 0.051 |

| Sequence | PBM E-score |
| --- | --- |
| ACTCTGTG | 0.139 |
| AAAAAAGT | -0.0844 |
| CTGTAACA | -0.17 |
| AATTGAGT | 0.245 |
| CGGTGCCC | -0.0794 |
| AAGGTCAT | -0.0674 |
| CAGATCGC | 0.0885 |
| GGGTCACC | -0.261 |
| ATATCCCC | 0.125 |
| AGCGGGAG | -0.0835 |
| AGGGCTAC | -0.156 |
| ATGGGTCC | 0.0519 |
| AGCAGCTC | -0.0406 |
| CTTGGTCA | 0.138 |
| GCACGCTA | -0.134 |
| GCGGAAGA | 0.104 |
| CGCTCATC | -0.0595 |
| ATTAGGTG | -0.0449 |
| ACAGCTAA | -0.0719 |
| ACCTGGTA | -0.25 |
| GAAAAGCC | 0.0239 |
| ATCATACA | 0.0993 |
| ATCATTAG | 0.155 |
| GAACAAGC | 0.0576 |
| CGCGTGTC | 0.084 |

| Sequence | PBM E-score |
| --- | --- |
| TATGGGCA | 0.0362 |
| GCGGCCCC | -0.182 |
| TGTTTAAA | 0.0709 |
| AGGTCAGG | 0.0559 |
| ATCTGGAC | -0.108 |
| ATTTTAGC | -0.0155 |
| GGATTTCA | 0.0791 |
| CACCTGTC | 0.0208 |
| AGCACTCC | -0.0037 |
| GGTATTCA | 0.151 |
| GTCTTATA | -0.0242 |
| ACAGGGCA | 0.195 |
| CAGATAAG | -0.181 |
| GTCCCGCA | -0.142 |
| GCGCTGCA | 0.11 |
| CTGGAACA | 0.147 |
| CGCGCTGC | 0.0564 |
| CCCGCTGC | -0.13 |
| AGTCACTC | 0.0207 |
| AGTTGATA | 0.0603 |
| CTGAACAG | 0.0872 |
| GACTCACA | 0.0103 |
| CTCGATCA | 0.0432 |
| ACGCGAAA | 0.242 |
| ATCTAGTC | 0.0247 |

| Sequence | PBM E-score |
| --- | --- |
| CGTTATGA | -0.026 |
| CGTCCTCC | -0.0951 |
| AGCTAAAC | 0.0638 |
| AAACTTAC | 0.0264 |
| AAAACTGT | 0.163 |
| CTGACGAA | 0.208 |
| AGAGTCGA | -0.0481 |
| GACGCTAA | -0.148 |
| GCACTGCA | 0.062 |
| CCCCACCA | 0.104 |
| ATGGGATC | -0.0552 |
| ACGGTCCC | -0.00846 |
| AGCAAACC | 0.168 |
| CGGTCACG | -0.162 |
| GCCGGCTA | -0.145 |
| TGCTCACA | -0.00909 |
| AGTGTTTC | -0.00327 |
| AGTTGAAC | -0.0293 |
| AAGAATAC | 0.0535 |
| ATACTCGG | 0.139 |
| ACGAGGCG | 0.139 |
| GACAATTA | 0.139 |
| CGGAGTAG | -0.0833 |
| CCGAGGAG | -0.201 |
| AGATAGCT | -0.00288 |

| Sequence | PBM E-score |
| --- | --- |
| ACGAACAA | 0.124 |
| AATTAGGG | 0.00357 |
| ACTGTGTC | 0.012 |
| CGGGGACG | -0.0177 |
| CACGCACA | 0.149 |
| GCCACACA | 0.0223 |
| GAAGAATA | -0.163 |
| AGTGTAAC | -0.00932 |
| ACAATCAC | 0.0749 |
| AGGGAGCC | -0.3 |
| CAATGGTA | -0.0105 |
| CTGGCTAA | -0.0584 |
| GCAGGCGC | 0.0429 |
| GCGCACGC | -0.0951 |
| ATTCGAAC | 0.155 |
| GTCGGGGA | 0.0523 |
| GACTCTGA | 0.0315 |
| CGCCCCCG | -0.307 |
| ACTTACGC | -0.117 |
| TGGATGAA | 0.0685 |
| AAGGCCCC | -0.1 |
| GCGAGGCC | -0.0319 |
| ACCAACCG | -0.0193 |
| GACCAGAA | 0.0774 |
| GGGCCTTA | -0.0158 |

| Sequence | PBM E-score |
| --- | --- |
| ACGAATAA | 0.186 |
| GCCGGGCC | -0.237 |
| TCCTTGCA | -0.0897 |
| AGCCCCCA | -0.348 |
| GTTTCGAA | 0.0673 |
| AGGTCTCG | -0.205 |
| GCAGAACA | 0.152 |
| GTACGAAC | 0.127 |
| AAATGATT | 0.214 |
| AGATATCC | 0.209 |
| ATGTCAGA | -0.107 |
| AGCGAACA | 0.0707 |
| ACGATCGC | 0.132 |
| TCCGTGAA | -0.0299 |
| CTACTGGA | -0.0857 |
| ACCCCCTA | -0.391 |
| CACTTGAG | -0.111 |
| GTAAAGGA | -0.115 |
| AGGGACAA | 0.228 |
| TAAGAGCA | 0.0463 |
| CCAAGGCC | -0.0751 |
| ATGAGTGG | -0.00554 |
| GCTTAGAC | 0.0132 |
| GCGAATCA | 0.187 |
| CCCCTGGA | 0.0369 |

| Sequence | PBM E-score |
| --- | --- |
| ACGCGCAT | 0.098 |
| CAATAAAG | 0.0476 |
| CACGAACA | 0.071 |
| CATGTATA | -0.0179 |
| CGCCGGGA | -0.199 |
| GCGCTCCC | 0.00196 |
| ATGTTTGA | 0.0145 |
| TCCTGGCA | 0.00481 |
| ATGCTGTG | -0.0153 |
| ATAACGTA | 0.179 |
| GCGGAATA | 0.0652 |
| GCATGAAC | 0.0623 |
| CGGCGTTC | -0.183 |
| CCCGACGA | -0.00655 |
| CCTAGTAG | -0.228 |
| ATTGATAA | 0.0942 |
| CCTGGTAA | 0.012 |
| CAGATGGG | -0.0267 |
| ACCATCGT | -0.156 |
